# Source: article PMC5338303, “Unveiling the Metabolic Changes on Muscle Cell Metabolism Underlying p-Phenylenediamine Toxicity” (Frontiers in Molecular Biosciences, 2017)
# Test system: central carbon metabolic pathways of C2C12 cells
# Test: Mass isotopomer distribution analysis (MIDA) with [1,2-13C2]-glucose, GC/MS
# Format: cell-based, Mus musculus mouse
# Conditions: PPD-treated C2C12, 24 h
# Description: To track and measure the substrate carbon flux through central carbon metabolic pathways of C2C12 cells when treated with PPD, mass isotopomer distribution analysis (MIDA), and metabolic modeling approaches were used.
# Cells were cultured in DMEM (Biowithaker) °supplemented with 10% dialyzed heat-inactivated Fetal Bovine Serum (FBS), glucose (10 mM, 50% isotope enrichment [1,2-^13C2]-glucose), asparagine (20 mg/ml), penicillin (100 U/ml), and streptomycin (100 μg/ml). […] Initially each flask contained 10^6 cells and the incubation was carried out for 24 h. To separate medium and cell pellets, cells were centrifuged at the end of incubation (3000 × g, 5 min). Afterwards, pellet and medium were stored at −20°C for metabolite isolations.
# • Glucose. A mixed DOWEX 50-DOWEX 1 ionic exchange column was used to corroborate that the original medium contained 50% of labeled glucose ([1,2-^13C2] D-glucose). First, 500 μl of medium and after 6 ml of milliQ water were passed through the column and were collected into a glass tube. Next, it was lyophilized for 12 h to eliminate the remaining liquid and the dried sample was stored. Finally, hydroxyl-amine in pyridine and acetic anhydride were used to derivatize glucose to its aldonitrile form. The ion cluster was set to m/z 328 (C1–C6, chemical ionization; Wamelink et al., [2008]). • Glycogen. Glycogen for biochemical and isotopomerics distribution determination was extracted as described in Burchert ([2007]), by direct digestion of sonicated extracts with amyloglucosidase. Measurement of glucose released from glycogen was done by using the isotopomer [U-13C6-1,2,3,4,5,6,6-D7]D-glucose (or [U-13C-D7]-glucose as shorter name) as recovery standard and internal standard quantification procedures. The hydrolyzed glucose was isolated using ion exchange chromatography (Mao et al., [2002]) and was derivatized to its aldonitrile acetate form using hydroxyl-amine in pyridine and acetic anhydride. We monitored the ion cluster around the m/z 328 (C1–C6, chemical ionization; Wamelink et al., [2008]). • Lactate. Lactate from the culture media of C2C12 cells, which had been cultured and treated as explained above, was extracted by ethyl acetate. In more detail, 1 ml of culture medium was acidified with 2–3 drops of HCl, followed by addition of 1 ml of ethyl acetate and a little amount of sodium chloride and 1 min shaken. Next, the samples rest for 2 min and were centrifugated at 4,000 rpm for 10 min in a Jouan B3.11 centrifuge. Next, organic phase was transferred to a tube and the remaining ethyl acetate was removed by applying aa slight N2 pressure for 10–15. Lactate was derivatized to its propylamideheptafluorobutyric form. Next, the m/z 328 was monitored (C1–C3, chemical ionization, Wamelink et al., [2008]). • Ribose from RNA. Acid hydrolysis of the cellular RNA was used to isolate ribose from C2C12 treated and non-treated cells with the fractions as indicated above. First, 1 ml of Trizol was added and dissolved by sonication (30 s) to the cold pellets, next, it was transferred to free RNase eppendorfs and 200 μl of chloroform were added. Next, the samples were shaken and centrifuged in an Eppendorf microfuge for 30 min at 14,000 rpm at 4°C. Chloroform and RNA from the non-colored upper phase was collected and 1 ml of cold 2-propanol was added and the mixture was reposing overnight to precipitate the DNA. Next, samples were centrifuged as indicated above. RNA was further purified by removing the supernatant, next 1 ml of 75% cold ethanol was added. The samples were shaken and centrifuged to eliminate the supernatant and re-suspended with 10 μl of miliQ water and 2 ml of HCl 2N. Next, the samples were heated at 100°C for 2 h, cooled at room temperature (acid hydrolysis of RNA) and dried with air preasured to eliminate the remaining liquid or stored stored at −80°C. Acetic anhydride and hydroxyl-amine in pyridine were used to derivatize ribose to the aldonitrile acetate form. […]
smiles,measurement,value
"Nc1ccc(N)cc1 [PPD, p-phenylenediamine]","Glucose m0 isotopologue fraction, mean",0.542
same,"Glucose m1 isotopologue fraction, mean",0.0016
same,"Glucose m2 isotopologue fraction, mean",0.456
same,"Glucose m3 isotopologue fraction, mean",0.0001
same,"Glucose m4 isotopologue fraction, mean",0
same,"Glucose m5 isotopologue fraction, mean",0
same,"Glucose m6 isotopologue fraction, mean",0
same,"Glutamate_c2-4 m0 isotopologue fraction, mean",0.937
same,"Glutamate_c2-4 m1 isotopologue fraction, mean",0.0412
same,"Glutamate_c2-4 m2 isotopologue fraction, mean",0.0188
same,"Glutamate_c2-4 m3 isotopologue fraction, mean",0.00305
same,"Glutamate_c2-4 m4 isotopologue fraction, mean",0
same,"Glutamate_c2-4 m5 isotopologue fraction, mean",0
same,"Glutamate_c2-5 m0 isotopologue fraction, mean",0.939
same,"Glutamate_c2-5 m1 isotopologue fraction, mean",0.0209
same,"Glutamate_c2-5 m2 isotopologue fraction, mean",0.0373
same,"Glutamate_c2-5 m3 isotopologue fraction, mean",0
same,"Glutamate_c2-5 m4 isotopologue fraction, mean",0.0026
same,"Glutamate_c2-5 m5 isotopologue fraction, mean",0
same,"Glycogen m0 isotopologue fraction, mean",0.773
same,"Glycogen m1 isotopologue fraction, mean",0.0006
same,"Glycogen m2 isotopologue fraction, mean",0.225
same,"Glycogen m3 isotopologue fraction, mean",0.0007
same,"Glycogen m4 isotopologue fraction, mean",0
same,"Glycogen m5 isotopologue fraction, mean",0.0005
same,"Glycogen m6 isotopologue fraction, mean",0.0007
same,"Lactate m0 isotopologue fraction, mean",0.847
same,"Lactate m1 isotopologue fraction, mean",0.0078
same,"Lactate m2 isotopologue fraction, mean",0.145
same,"Lactate m3 isotopologue fraction, mean",0
same,"Ribose-5-P m0 isotopologue fraction, mean",0.865
same,"Ribose-5-P m1 isotopologue fraction, mean",0.0896
same,"Ribose-5-P m2 isotopologue fraction, mean",0.0294
same,"Ribose-5-P m3 isotopologue fraction, mean",0.0139
same,"Ribose-5-P m4 isotopologue fraction, mean",0.0018
same,"Ribose-5-P m5 isotopologue fraction, mean",0
